Assay results taken from PubChem BioAssay AID2685 (National Center for Advancing Translational Sciences (NCATS), 2010).
The other results are listed elsewhere or left out. The main result of the screen is listed elsewhere. These columns were measured beside it and carry no call. Most of these compounds were active or inconclusive in the main read-out, so they are no random draw. Words in brackets tell the shape of the fitted curve; partial curves, single points and poor fits give uncertain potencies.

Test: qHTS Assay for Lipid Storage Modulators in Drosophila S3 Cells;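 for cell number change: cells counted by Cell Tracker Red CMTPX staining in the red channel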
Settings: BODIPY lipid droplet fluorescence, 18-24 h; for cell number change: measured here: cell count max response, cells fed with added oleic acid
Outline: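 Drosophila S3 cells got compounds at several concentrations plus oleic acid (400 uM solution). Laser-scanning cytometry with 488 nm excitation read lipid droplets at 500-530 nm and cells at 575-640 nm. Percent activity was relative to 20 uM Triacsin C.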

[1] = measured here: cell number channel AC50, cells fed with added oleic acid
[2] = measured here: lipid fluorescence (Fed channel) AC50, cells fed with added oleic acid

| SMILES | cell number change | AC50 [1] | AC50 [2] |
| --- | --- | --- | --- |
| Cc1noc(C)c1C(=O)NC(C)c1ccc(Cl)cc1Cl (stereo unspecified) | 6.72% | 0.00517 µM [rising, full curve, poor fit] | 0.00461 µM [rising, full curve, poor fit] |
| O=[N+]([O-])c1cccc(N/N=C/c2cccc(O)c2O)c1 | -3.53% | 6.51 µM [falling, single point] | 6.51 µM [falling, single point] |
| CCc1cc2c(-c3ccccc3)cc(=O)oc2cc1OCC(C)=O |  |  | 8.2 µM [falling, single point] |
| CCC1(c2ccccc2)NC(=O)N(CC(=O)NNC(=O)c2ccc(F)cc2)C1=O (stereo unspecified) | 100% | 5.8 µM [falling, partial curve, poor fit] |  |
| COc1ccc(NC(=O)C2OCCc3ccccc32)c(OC)c1 (stereo unspecified) | 5.66% |  | 0.58 µM [rising, partial curve] |
| Cc1cc(OC(=O)c2ccccc2Br)cc(=O)n1C | -14.6% |  | 6.51 µM [rising, single point] |
| CC1(C)CC(=O)C(CC2=C(N)CC(C)(C)CC2=O)=C(N)C1 | 22.7% | 3.26 µM [rising, full curve, poor fit] |  |
| O=C1CC(c2ccc3c(c2)OCO3)c2cc3c(cc2N1)OCO3 (stereo unspecified) | -25.4% | 2.91 µM [falling, full curve, poor fit] | 2.91 µM [rising, partial curve] |
| Cc1cccc(C(=O)Nc2ccccc2-c2nnn(CC(=O)Nc3ccc4c(c3)OCCO4)n2)c1 | -12.2% |  |  |
| CS(=O)(=O)N(Cc1ccccc1)c1ccc(C(=O)NCc2cccnc2)cc1 |  |  | 0.731 µM [rising, single point] |
| Oc1[nH]c(=S)sc1/C=C1\C(c2ccccc2)=Nc2ccccc21 | 58.6% | 5.8 µM [rising, partial curve] | 10.3 µM [rising, partial curve] |
| COc1ccc(OCC(O)CNC(=O)c2ccc(OC)cc2)cc1 (stereo unspecified) | -35.2% |  |  |
| O=C1CCc2cc(NS(=O)(=O)c3ccc([N+](=O)[O-])cc3)cc3c2N1CCC3 | 35.4% | 7.31 µM [rising, partial curve] |  |
| Nc1nonc1-c1nc2ccccc2n1Cc1ccccc1 | 130% | 4.11 µM [rising, full curve] | 10.3 µM [rising, partial curve] |
| CC(C)CN(Cc1cc(=O)oc2cc(-c3ccccc3)c(O)cc12)CC(C)C | -60.3% | 29.1 µM [falling, single point] |  |
| O=C(CSc1nnc(Cn2nnc3ccccc32)o1)N(Cc1ccc(Cl)cc1)c1ccccc1 | -22.2% |  | 2.91 µM [rising, partial curve] |
| NNc1ccc2c(C(F)(F)F)cc(C(F)(F)F)nc2n1 |  |  | 0.116 µM [falling, full curve, poor fit] |
| O=C(NN=c1c(=O)c2ccccc2c1=O)c1ccccc1 | 17.9% |  | 4.61 µM [rising, partial curve] |
| COc1cccc(N(CC(=O)NC2CCCC2)C(=O)Cn2nnc(-c3ccc(C)cc3)n2)c1 | 13.5% |  |  |
| CC1(C)N=C(c2cccc(F)c2)C(=O)N1 | 10.7% |  |  |

| SMILES | cell number change | AC50 [1] | AC50 [2] |
| --- | --- | --- | --- |
| COc1ccc(OC)c(NC(=O)c2cc(-c3cc(C)c(C)cc3O)n[nH]2)c1 | 142% | 29.1 µM [rising, single point] | 29.1 µM [rising, single point] |
| CCOC(=O)N1CCN(C(=O)CSc2nnc(-c3ccc(C(C)(C)C)cc3)o2)CC1 | -18.1% |  | 2.06 µM [falling, full curve] |
| Cn1nc(C(=O)N2CCCCC2)c2c1-c1ccccc1S(=O)(=O)C2 | 31% | 0.00461 µM [rising, full curve, poor fit] | 29.1 µM [rising, single point] |
| CN(CC1CCOCC1)C(=O)CC1C(=O)NCCN1Cc1cccc(C(F)(F)F)c1 (stereo unspecified) | 4.36% |  | 0.00517 µM [rising, full curve, poor fit] |
| CC(=O)Nc1nonc1-n1nnc(C(=O)NCc2ccccc2)c1C |  |  | 0.00411 µM [rising, full curve, poor fit] |
| Cc1cccc(N2C(=O)CC(Sc3nc(-c4ccccc4)c4cc(Cl)ccc4n3)C2=O)c1 (stereo unspecified) | -8.39% |  | 3.66 µM [rising, full curve, poor fit] |
| Cc1cc(NCCCn2ccnc2)n2c(nc3ccccc32)c1C#N | 176% | 6.51 µM [rising, partial curve] | 1.16 µM [rising, partial curve] |
| Cc1c(N=C2N=C(NC(=O)NC(C)(C)C)c3ccccc32)c(=O)n(-c2ccccc2)n1C | -12.9% |  |  |
| Nc1c(C(=O)Nc2ccc3c(c2)OCCO3)nnn1Cc1ccc(F)cc1 | -25% | 1.46 µM [rising, partial curve] |  |
| O=C(c1ccc(CNS(=O)(=O)c2ccc(Br)cc2)cc1)N1CCCCC1 | 0.763% |  |  |
| Cc1ccc(C(=O)NC(=S)NCCCN2CCOCC2)cc1 | -19% |  | 5.17 µM [falling, full curve, poor fit] |
| COc1ccc(CCNC(=O)CCn2c(SCC#N)nc3ccccc3c2=O)cc1OC | 1.98% |  | 5.8 µM [rising, full curve, poor fit] |
| O=C(Nc1ccc2c(c1)S(=O)(=O)N=C1CCCCCN12)c1ccccc1Cl | 44.8% | 0.731 µM [rising, full curve] | 0.731 µM [rising, full curve] |
| N=c1c(S(=O)(=O)c2ccccc2)cc2c(=O)n3ccccc3nc2n1Cc1cccnc1 | 110% | 29.1 µM [rising, single point] | 6.51 µM [falling, full curve, poor fit] |
| O=C(O)CCN1C(=O)/C(=C\c2ccncc2)SC1=S | 52.5% | 8.2 µM [rising, partial curve] |  |
| COc1cccc(NC(=O)Cn2c(=O)n(-c3cc(OC)c(OC)c(OC)c3)c(=O)c3ccccc32)c1 | -3.26% | 0.517 µM [falling, single point] |  |
| O=C1CN(C(=O)COC(=O)CNC(=O)c2ccc(Cl)cc2)c2ccccc2N1 | 3.21% |  |  |
| Cc1ncc(CO)c2c1Oc1nc(-c3ccccc3)nc(SCC(=O)N3CCOCC3)c1C2 | -30.7% | 4.61 µM [falling, partial curve] |  |
| O=C(O)C(=O)/C(=C\c1ccccc1)c1ccc2ccccc2n1 |  |  | 6.51 µM [rising, partial curve, poor fit] |
| Cc1ccc(C)c(S(=O)(=O)Nc2ccc(O)cc2)c1 | -9.95% |  | 0.00461 µM [falling, full curve, poor fit] |

Copied from the list:
Under AC50 [2], COc1ccc(OC)c(NC(=O)c2cc(-c3cc(C)c(C)cc3O)n[nH]2)c1 shows 29.1 µM [rising, single point]
Under AC50 [2], Cc1ccc(C(=O)NC(=S)NCCCN2CCOCC2)cc1 shows 5.17 µM [falling, full curve, poor fit]
Under cell number change, Cc1c(N=C2N=C(NC(=O)NC(C)(C)C)c3ccccc32)c(=O)n(-c2ccccc2)n1C shows -12.9%
Under AC50 [2], Cn1nc(C(=O)N2CCCCC2)c2c1-c1ccccc1S(=O)(=O)C2 shows 29.1 µM [rising, single point]
Under cell number change, Cc1ccc(C)c(S(=O)(=O)Nc2ccc(O)cc2)c1 shows -9.95%

More results.

| SMILES | cell number change | AC50 [1] | AC50 [2] |
| --- | --- | --- | --- |
| COC(=O)c1onc(-c2c(OC)cc(OC)cc2OC)c1C(=O)OC | -2.28% |  | 7.31 µM [rising, partial curve] |
| Nc1nc(SCc2ccc3c(c2)OCCO3)n[nH]1 | 0.76% |  |  |
| COc1ccc(N(C(=O)c2cnccn2)C(C(=O)NC2CCCCC2)c2cc(OC)c(OC)c(OC)c2)cc1 (stereo unspecified) | 5.26% |  | 0.631 µM [falling, partial curve, poor fit] |
| S=C(NCC1CCCO1)NC1CCCCC1 (stereo unspecified) | -1.75% |  | 2.59 µM [falling, partial curve] |
| Cn1nc(-c2ccccc2)c(C#N)c1Sc1cccc(Cl)c1 | 11.8% |  | 29.1 µM [rising, single point] |
| C#CCOc1c(Cl)cc(/C=C2/C(=O)ON=C2C)cc1OC | -2.84% | 0.58 µM [rising, partial curve, poor fit] | 0.731 µM [rising, partial curve, poor fit] |
| Cc1cccc(NC(=S)N2CCN(C(=O)C3CCCO3)CC2)c1 (stereo unspecified) | -23.2% |  | 29.1 µM [falling, single point] |
| COc1ccc(C(O)(CCN2CCCCC2)C2CCCCC2)cc1 (stereo unspecified) | -23.4% |  | 29.1 µM [falling, single point] |
| COC(=O)c1[nH]c2cc(OC)ccc2c1NC(=O)c1c(F)cccc1F | -7.14% |  | 0.13 µM [falling, full curve, poor fit] |
| COc1ccc(NC(=O)N2CCCC2C(=O)NC2CCCC2)cc1 (stereo unspecified) | 6.67% |  | 29.1 µM [rising, partial curve, poor fit] |
| Cn1c(=O)[nH]c(=O)c2c1[nH]c(=S)n2Cc1ccc(Cl)cc1 | -44.5% | 29.1 µM [falling, single point] | 29.1 µM [falling, single point] |
| Cc1nnc(N/N=C/c2ccccc2C(F)(F)F)n1N | -20.7% |  |  |
| C=CCn1c(C)cc(-c2csc(N)n2)c1C | 67.3% | 23.1 µM [rising, single point] |  |
| Nc1nc(-c2ccccn2)nc(N)c1Cc1ccc(Cl)cc1Cl | -45.8% | 2.06 µM [rising, single point] |  |
| CCNC(=S)N(Cc1ccc(OC)cc1)C1CC(=O)N(c2ccc(OCC)cc2)C1=O (stereo unspecified) |  | 0.651 µM [falling, single point] | 0.58 µM [falling, single point] |
| COC(=O)Cc1c(O)ccn(CCc2ccc(OC)c(OC)c2)c1=O | -15.1% | 0.58 µM [falling, partial curve, poor fit] | 29.1 µM [rising, single point] |
| CCOC(=O)c1ccccc1NC1c2ccccc2C(=O)N1C1CCN(C(=O)OCC)CC1 (stereo unspecified) | -15.6% |  | 5.8 µM [falling, partial curve] |
| Cn1c(=O)n(C)c2cc(N3CCCC3)c(NC(=O)c3cccc(F)c3)cc21 | 91.1% | 29.1 µM [rising, single point] | 18.4 µM [rising, single point] |
